# Measured values reported in publication PMC7956269.
# Results are given in words; binding and its absence hold for the method and conditions named. In cells and extracts the contact can be indirect. Some results given as binding are weak or reduced against the parent protein; the word gives no strength. Sequences can lack the tags named with a protein.
# B1: HA-UHRF1 (protein, UniProt Q8VDF2 1-782)
# chain: MWIQVRTMDGKETHTVNSLSRLTKVQELRKKIEEVFHVEPQLQRLFYRGKQMEDGHTLFDYDVRLNDTIQLLVRQSLALPLSTKERDSELSDSDSGYGVGHSESDKSSTHGEGAAEADDKTVWEDTDLGLYKVNEYVDVRDNIFGAWFEAQVVQVQKRALSEDEPCSSSAVKTSEDDIMYHVKYDDYPEHGVDIVKAKNVRARARTVIPWENLEVGQVVMANYNVDYPRKRGFWYDVEICRKRQTRTARELYGNIRLLNDSQLNNCRIMFVDEVLMIELPKERRPLIASPSQPPPALRNTGKSGPSCRFCKDDENKPCRKCACHVCGGREAPEKQLLCDECDMAFHLYCLKPPLTSVPPEPEWYCPSCRTDSSEVVQAGEKLKESKKKAKMASATSSSRRDWGKGMACVGRTTECTIVPANHFGPIPGVPVGTMWRFRVQVSESGVHRPHVAGIHGRSNDGAYSLVLAGGYEDDVDNGNYFTYTGSGGRDLSGNKRTAGQSSDQKLTNNNRALALNCHSPINEKGAEAEDWRQGKPVRVVRNMKGGKHSKYAPAEGNRYDGIYKVVKYWPERGKSGFLVWRYLLRRDDTEPEPWTREGKDRTRQLGLTMQYPEGYLEALANKEKSRKRPAKALEQGPSSSKTGKSKQKSTGPTLSSPRASKKSKLEPYTLSEQQANLIKEDKGNAKLWDDVLTSLQDGPYQIFLSKVKEAFQCICCQELVFRPVTTVCQHNVCKDCLDRSFRAQVFSCPACRFELDHSSPTRVNQPLQTILNQLFPGYGSGR
# Molecular target: 3*Flag-FOXC1 (mouse) (UniProt Q61572)
# Experiment: co-IP; HEK293T cells co-transfected; lysate in Pierce IP Lysis Buffer; anti-Flag antibody (IgG as control), protein A/G agarose, 4 °C; blots with anti-GFP and anti-HA
binder,measurement,value
B1,binding,binds
